Experimental data reported in article PMC11466968.
No constants are given. Whether binding was seen depends on the method and setting. In cells and extracts the contact can be indirect. Some entries that bind do so weakly or less than the wild type.

Protein sequences, listed by entry. Tags and fused reporters are not part of them. Lines headed by an entry give the natural chain unless they say otherwise; changes in a name come on top. Chains listed by the source or under a name are the forms on record and can include a tag or linker.
UniProt O95817: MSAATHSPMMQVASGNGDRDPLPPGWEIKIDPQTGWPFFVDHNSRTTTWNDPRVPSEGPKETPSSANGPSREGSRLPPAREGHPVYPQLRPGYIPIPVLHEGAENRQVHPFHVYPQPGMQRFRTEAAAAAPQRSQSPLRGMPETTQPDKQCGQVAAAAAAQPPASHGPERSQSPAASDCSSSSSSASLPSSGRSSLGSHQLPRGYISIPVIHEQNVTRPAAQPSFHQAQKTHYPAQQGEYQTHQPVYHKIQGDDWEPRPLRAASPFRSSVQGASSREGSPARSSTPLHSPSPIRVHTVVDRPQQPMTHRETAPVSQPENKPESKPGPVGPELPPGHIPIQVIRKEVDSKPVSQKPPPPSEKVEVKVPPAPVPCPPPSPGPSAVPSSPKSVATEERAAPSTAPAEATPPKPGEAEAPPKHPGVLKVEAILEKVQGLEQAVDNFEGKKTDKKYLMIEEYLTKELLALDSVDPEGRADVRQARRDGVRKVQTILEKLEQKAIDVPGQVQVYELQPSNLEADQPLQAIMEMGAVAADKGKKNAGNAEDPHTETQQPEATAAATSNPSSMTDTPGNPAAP
BAG3 (S173/S377/S386D)-4FLAG (O95817, form named): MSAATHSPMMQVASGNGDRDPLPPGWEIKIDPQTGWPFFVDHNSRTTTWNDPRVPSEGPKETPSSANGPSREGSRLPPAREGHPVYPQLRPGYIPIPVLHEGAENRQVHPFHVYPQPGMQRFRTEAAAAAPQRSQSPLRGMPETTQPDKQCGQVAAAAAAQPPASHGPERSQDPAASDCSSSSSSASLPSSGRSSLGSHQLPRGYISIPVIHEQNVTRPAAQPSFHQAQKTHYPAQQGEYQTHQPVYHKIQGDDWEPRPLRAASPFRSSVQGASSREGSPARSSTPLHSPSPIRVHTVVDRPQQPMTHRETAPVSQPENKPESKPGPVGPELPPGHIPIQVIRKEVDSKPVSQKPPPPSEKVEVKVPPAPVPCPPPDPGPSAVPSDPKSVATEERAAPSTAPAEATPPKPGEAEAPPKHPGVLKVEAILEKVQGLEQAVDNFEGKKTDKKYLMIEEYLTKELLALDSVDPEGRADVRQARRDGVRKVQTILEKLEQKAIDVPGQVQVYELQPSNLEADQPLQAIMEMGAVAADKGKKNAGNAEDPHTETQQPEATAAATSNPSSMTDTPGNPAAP
CaMKIIβ (D-S), constitutively active kinase mutant (Q13554, form named): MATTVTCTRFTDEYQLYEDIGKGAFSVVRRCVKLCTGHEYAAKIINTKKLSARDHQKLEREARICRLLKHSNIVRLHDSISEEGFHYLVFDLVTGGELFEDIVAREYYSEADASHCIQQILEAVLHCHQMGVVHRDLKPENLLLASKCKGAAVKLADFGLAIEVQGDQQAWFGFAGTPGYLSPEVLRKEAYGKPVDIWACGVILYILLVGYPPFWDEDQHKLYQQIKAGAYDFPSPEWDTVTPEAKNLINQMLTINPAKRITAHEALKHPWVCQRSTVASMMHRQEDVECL
UniProt Q9BQI3: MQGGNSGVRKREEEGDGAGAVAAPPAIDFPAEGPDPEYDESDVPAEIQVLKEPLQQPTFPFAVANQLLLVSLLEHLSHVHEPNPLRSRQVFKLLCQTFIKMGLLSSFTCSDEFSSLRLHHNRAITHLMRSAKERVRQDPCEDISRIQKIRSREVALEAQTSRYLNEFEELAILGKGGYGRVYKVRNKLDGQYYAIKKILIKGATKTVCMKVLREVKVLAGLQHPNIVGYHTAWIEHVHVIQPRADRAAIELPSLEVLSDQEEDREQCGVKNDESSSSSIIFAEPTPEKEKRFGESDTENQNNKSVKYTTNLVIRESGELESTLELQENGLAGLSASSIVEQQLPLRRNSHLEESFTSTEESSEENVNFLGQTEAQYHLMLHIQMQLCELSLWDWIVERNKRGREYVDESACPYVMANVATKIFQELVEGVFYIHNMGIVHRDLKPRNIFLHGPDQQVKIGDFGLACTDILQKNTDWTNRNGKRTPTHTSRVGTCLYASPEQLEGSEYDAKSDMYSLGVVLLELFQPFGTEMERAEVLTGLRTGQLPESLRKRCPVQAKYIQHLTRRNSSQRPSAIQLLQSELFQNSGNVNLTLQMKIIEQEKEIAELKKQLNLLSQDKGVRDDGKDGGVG

Experiments:
[1] = target: BAG3 (form in the experiment not stated) (UniProt O95817); experiment: co-IP; HEK293 transfected with the indicated plasmids; treated with MG132 (Fig. 4B, D, E) or not (Fig. 4B, F, G); immunoprecipitation with the indicated antibody; NP-40 alternative lysis buffer, 4 °C
[2] = target: BAG3-4FLAG (wild type) (UniProt O95817); experiment: co-IP; HEK293 transfected, with overexpressed wild-type CaMKIIβ or kinase-dead CaMKIIβ (K43M); treated with MG132; immunoprecipitated with anti-FLAG antibody
[3] = target: B-cell lymphoma 2 (Bcl-2)-associated athanogene 3 (BAG3), endogenous (human (endogenous in HEK293)) (UniProt O95817); experiment: co-IP; endogenous BAG3 and HRI in HEK293 lysate; cells treated with proteasome inhibitor with or without KN-93; NP-40 alternative lysis buffer, 4 °C
[4] = target: BAG3-4FLAG (wild type) (UniProt O95817); experiment: co-IP; BAG3-/- HEK293 transiently re-expressing wild-type or mutated BAG3-FLAG; treated with MG132; immunoprecipitated with anti-FLAG antibody; HRI detected by blot
[5] = target: BAG3 (S173/S377/S386D)-4FLAG (UniProt O95817); experiment: as above

binding [1]	binding [2]	binding [3]	binding [4]	binding [5]	Substance
binds					CaMKIIβ (D-S), constitutively active kinase mutant (from UniProt Q13554 1-291) (domain or fragment)
	binds	binds	binds	binds	heme-regulated inhibitor (HRI), endogenous (from UniProt Q9BQI3 1-630) (enzyme)
